Data as given in EP1637166A2.
These are yes or no findings as the source states them, for the method shown. Some binding calls cover weakened binding; strength is not graded here.

Amino acid sequences for entries named in this document (tags omitted). Residues count along the entry.
UniProt P51682: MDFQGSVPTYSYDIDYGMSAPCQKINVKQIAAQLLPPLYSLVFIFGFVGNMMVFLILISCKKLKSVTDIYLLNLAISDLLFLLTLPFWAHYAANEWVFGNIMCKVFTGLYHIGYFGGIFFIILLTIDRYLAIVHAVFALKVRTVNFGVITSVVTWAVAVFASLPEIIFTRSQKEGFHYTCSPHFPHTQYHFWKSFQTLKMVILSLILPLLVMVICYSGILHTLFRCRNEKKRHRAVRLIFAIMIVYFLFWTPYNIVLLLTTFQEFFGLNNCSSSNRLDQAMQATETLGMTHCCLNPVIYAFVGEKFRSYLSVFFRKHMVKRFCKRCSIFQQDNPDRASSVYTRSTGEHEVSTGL
UniProt P13501, residues 24-91: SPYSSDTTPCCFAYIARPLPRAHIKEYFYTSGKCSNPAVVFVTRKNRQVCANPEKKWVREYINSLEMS

Molecular target: mouse CCR5 (mCCR5) cloned from B6 mice, transiently expressed on HeLa-MAGI cells (mouse) (UniProt P51682)
Assay: displacement of 125I-labelled human RANTES from mCCR5-transfected HeLa-MAGI cells by 50 nM non-iodinated human RANTES

In the case of “non-iodinated human RANTES (R & D Systems) (from UniProt P13501 24-91) (ligand)”, the binding was “binds”.
